Measurements reported in PubChem BioAssay AID652259 (Drosophila RNAi Screening Center, 2013)
The deposit covers about 22,000 reagents; shown is an unselected part of those that have a named target and a result. Of all reagents, 233 (1.1%) got an active call. 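Light values are raw, unnormalised plate reads; the ratio scores behind the reporter calls were not deposited.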 Names joined by + are all predicted targets of the reagent. The record does not give: the amount of reagent, the time to read-out, the dose of the treatment.

Aim: 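Identify new Wingless signalling regulators in fly cells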 (primary screen)
Cell system: Drosophila clone 8 imaginal disc epithelial cells
Reagent: long dsRNA against Drosophila genes
Challenge: pathway stimulated by co-transfected Wingless expression plasmid
Read-out: 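Dual luciferase reads per well after Wingless plasmid stimulation: reporter firefly light and Renilla control light; activity is firefly divided by Renilla, a ratio not deposited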
Reading the numbers: firefly reporter light: higher = more Wg reporter light, before normalisation; Renilla control light: higher = more transfected or surviving cells
Rule for the call: 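Strong candidates differ from their plate mean by at least two out of four per-plate statistical tests; weak candidates meet just one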
Calls: active = candidate regulator (raises or lowers reporter); inactive = not a candidate

gene	amplicon	reporter change call, replicate 1	firefly reporter light, replicate 1	firefly reporter light, replicate 2	Renilla control light, replicate 1	Renilla control light, replicate 2	Outcome
Ddrgk1 (GeneID 42516)	DRSC15897		4614	5099	1308	1939	inactive
CG34454 (GeneID 5740130)	DRSC07864		5266		1952		inactive
CG9752 (GeneID 37431)	DRSC04562		6131		2004		inactive
if (GeneID 32661)	DRSC20341		20187		10647		inactive
BaraB (GeneID 35894)	DRSC06420		4822	12121	1196	4069	inactive
CG31798 (GeneID 318946)	DRSC01702		19207		8560		inactive
CG31516 (GeneID 318776)	DRSC11994		2616		1033		inactive
CG9517 (retired record) (GeneID 32417)	DRSC20192		24962		10520		inactive
CG9517 (retired record) (GeneID 32417)	DRSC20193		19782		7076		inactive
sws (GeneID 31716)	DRSC18843		3992		1384		inactive
CG32066 (GeneID 39206)	DRSC10652		6599		2855		inactive
CG32066 (GeneID 39206)	DRSC10653		4610		2165		inactive
wtrw (GeneID 40931)	DRSC14241		4233		1381		inactive
wtrw (GeneID 40931)	DRSC15278		13296		3265		inactive
Cerk (GeneID 40640)	DRSC12285		4912		2387		inactive
CSN4 (GeneID 35759)	DRSC07350		2866	7106	695	2755	inactive
Cad96Ca (GeneID 43026)	DRSC14220		15861		11221		inactive
Cad96Ca (GeneID 43026)	DRSC16693		17549		14448		inactive
CAH13 (GeneID 36126)	DRSC06128		2314	6091	576	2516	inactive
por (GeneID 32818)	DRSC20362		25831		11794		inactive
Doc2 (GeneID 39038)	DRSC22716		4.72e5	5.02e5	1.88e5	1.76e5	inactive
CG1494 (GeneID 33102)	DRSC20509		22759		9025		inactive
CG31076 (GeneID 318582)	DRSC16017		6432		3056		inactive
Scsalpha2 (GeneID 42326)	DRSC16003		1917	6845	1041	2277	inactive
spen (GeneID 44205)	DRSC00839		7201		2945		inactive
CG16952 (GeneID 32546)	DRSC19759		13746		6825		inactive
CG31086 + CG31323	DRSC14902		25528		24475		inactive

4 entries from above, sorted by “firefly reporter light, replicate 1”, descending:
gene	amplicon	reporter change call, replicate 1	firefly reporter light, replicate 1	firefly reporter light, replicate 2	Renilla control light, replicate 1	Renilla control light, replicate 2	Outcome
CG9517 (retired record) (GeneID 32417)	DRSC20193		19782		7076		inactive
CG32066 (GeneID 39206)	DRSC10652		6599		2855		inactive
CG32066 (GeneID 39206)	DRSC10653		4610		2165		inactive
sws (GeneID 31716)	DRSC18843		3992		1384		inactive

More entries:
gene	amplicon	reporter change call, replicate 1	firefly reporter light, replicate 1	firefly reporter light, replicate 2	Renilla control light, replicate 1	Renilla control light, replicate 2	Outcome
Nbr (GeneID 35385)	DRSC03166		8443		2440		inactive
Kif3C (GeneID 43820)	DRSC17209		20448		15957		inactive
Kif3C (GeneID 43820)	DRSC17210		22038		18823		inactive
His-Psi:CR31754 (GeneID 3772639)	DRSC22051	Wg reporter activity raised	8.85e5	7.94e5	36816	33102	inactive
CG33170 (GeneID 326267)	DRSC11854		17216		5568		inactive
CG33170 (GeneID 326267)	DRSC22366		5.50e5	6.08e5	2.34e5	2.24e5	inactive
CG12728 (GeneID 31526)	DRSC17883		2364	4472	760	1840	inactive
CG4250 (GeneID 37599)	DRSC04455		3095	9328	960	3861	inactive
Scgbeta (GeneID 41525)	DRSC15854		14059		2449		inactive
Ir67b (GeneID 39194)	DRSC09876		7750		2853		inactive
Gba1a (GeneID 42796)	DRSC21494		4.92e5	4.62e5	2.08e5	1.84e5	inactive
dpp (GeneID 33432)	DRSC00118		13946		10746		inactive
dpp (GeneID 33432)	DRSC00121		25291		11528		inactive
dpp (GeneID 33432)	DRSC00813		2864	6853	1040	2121	inactive
CG8252 (GeneID 35884)	DRSC07126		6390		2145		inactive
RIOK1 (GeneID 39309)	DRSC09853		11392		3912		inactive
Ppat-Dpck (GeneID 38647)	DRSC09744		908	6504	960	2551	inactive
CG2006 + Spase12	DRSC14316		5872		2652		inactive
Srp54k (GeneID 38593)	DRSC11289		1312	7916	989	2793	inactive
CG33140 (GeneID 35642)	DRSC06030		9488		2889		inactive
CG18476 (GeneID 41404)	DRSC15281		5200		1674		inactive
CG13323 (GeneID 36433)	DRSC06360		4820		1689		inactive
